Data as given in PubChem BioAssay AID504444 (National Center for Advancing Translational Sciences (NCATS), 2011).
About 7,500 (2.1%) of roughly 360,000 compounds were called active. Inconclusive results, whose numbers are uncertain, are shown with a selection of clear calls. Calls follow the shape of the dose curve; as a rule, active = well fitted inhibition curve with a large enough effect; inconclusive = small, poorly fitted or top-dose-only effect, or effect the other way; inactive = flat fitted curve, though single readings scatter. Potencies of inconclusive entries are doubtful fits and often do not repeat.

Test: Nrf2 qHTS screen for inhibitors; also: nearly all actives have a fitted effect of over 60% in size
Conditions: A549 ARE-Fluc reporter, luciferase luminescence, 18-24 h; series mostly up to 46 µM
How it was run: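 Concentration-response testing used A549 ARE_Fluc cells at 5000 cells/well. Following an 18-24 h compound incubation, viability was read by fluorescence (Ex 405/Em 525) and luciferase output by luminescence.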
Potency is read from the fitted curve at half-maximal effect.

Compound | Potency
CO/N=C(/c1nonc1N)N1CCN(c2ccc([N+](=O)[O-])cc2)CC1 | inconclusive: 32.6 µM [falling, single point]
O=C(Cn1c(=O)n(-c2ccc(Cl)cc2)c(=O)c2oc3ccccc3c21)Nc1ccccc1 | inactive
COc1ccc(S(=O)(=O)Nc2cccc3cccnc23)c([N+](=O)[O-])c1 | active: 7.31 µM
CC(C)c1ccc(NC(=O)N2CCc3ccccc3C2)cc1 | inconclusive: 0.58 µM [activator, full curve, poor fit]
CN(C)S(=O)(=O)c1ccc(Oc2ccc(S(=O)(=O)N(C)C)cc2)cc1 | active: 13 µM
CCCCCCCC(=O)NNC(=O)c1ccc(F)cc1 | inactive
CCN(CC)S(=O)(=O)c1nnc(NC(=O)c2ccc(C(C)C)cc2)s1 | inconclusive: 2.59 µM [activator, full curve]
O=C(NCc1ccc2c(c1)OCO2)c1ccccc1Cl | inactive
CCOC(=O)c1[nH]c2c(c1Cc1ccccc1OC)C(=O)CC(c1ccc(OCC)cc1)C2 (stereo not drawn) | inconclusive: 13 µM [falling, partial curve, poor fit]
CCc1nnc(NC(=O)CSc2nc3c(cc2C#N)CCCC3)s1 | inconclusive: 4.61 µM [activator, full curve]
CCNc1ccccc1CP(=O)(c1ccccc1)c1ccccc1O (stereo not drawn) | inactive
CCOc1ccc(NC(=O)c2ccc(NC(=O)CSc3nc4ccccc4c(=O)[nH]3)cc2)cc1 | inconclusive: 0.082 µM [falling, full curve, poor fit]
COC(=O)c1cc(C)ccc1OCc1ccc([N+](=O)[O-])cc1 | inconclusive: 20.6 µM [activator, single point]
CCOC(=O)c1c(C)oc2nc(C)nc(NCCc3ccc(SC)cc3)c12 | inconclusive: 29.1 µM [falling, single point]
COc1ccccc1N1CCN(c2nc3ccc(C)cc3n3nnnc23)CC1 | inconclusive: 29.1 µM [activator, single point]
CN(C)c1cnn(-c2ccccc2)c(=O)c1Cl | inconclusive: 32.6 µM [activator, partial curve, poor fit]
COc1ccc(-n2nc([N+](=O)[O-])c(=NCCCN3CCCC3=O)n2O)cc1 | inactive
COc1ccc(-n2cccc2C=O)cc1 | inconclusive: 9.2 µM [activator, partial curve]
COc1ccc(CNC(=O)c2c[nH]c3ccccc3c2=O)cc1 | inactive
CN(C(=O)c1cccc(NC(=O)Cc2ccc(NC(=O)C3CCCN(C(=O)C4CCCCC4)C3)cc2)c1)C1CCC1 (stereo not drawn) | inactive
CC(C)(C)c1ccc(-c2cc(C(=O)NNC(=O)Nc3ccccc3)c3ccccc3n2)cc1 | inconclusive: 1.64 µM [activator, partial curve, poor fit]
O=C(Cc1ccc(F)cc1)Nc1ccc(S(=O)(=O)N2CCCCC2)cc1 | inconclusive: 25.9 µM [falling, single point]

Compound | Potency
CC(=O)c1c(C)[nH]c(C(=O)OCC(=O)Nc2ccc(C)cc2[N+](=O)[O-])c1C | active: 5.8 µM
CC(=O)c1ccc(NC(=O)C(C)OC(=O)c2ccc(NS(=O)(=O)c3ccc(F)c(F)c3)cc2)cc1 (stereo not drawn) | inconclusive: 0.326 µM [falling, full curve, poor fit]
CCSC1=C(C#N)C(c2ccc(C)s2)CC(=O)N1 (stereo not drawn) | inactive
Cc1c(NC(=O)c2ccc(N(C)S(=O)(=O)c3ccccc3)cc2)c(=O)n(-c2ccccc2)n1C | inconclusive: 14.6 µM [falling, partial curve, poor fit]
Cc1ccc2[nH]c3c(=O)n(CC(=O)N4CCN(c5cccc(C(F)(F)F)c5)CC4)ncc3c2c1 | inconclusive: 5.17 µM [activator, partial curve, poor fit]
Cc1cccc(/C(N)=N/OC(=O)c2ccco2)c1 | inconclusive: 9.2 µM [activator, partial curve, poor fit]
O=C(O)c1nccnc1C(=O)NCc1csc2ccc(Cl)cc12 | inconclusive: 1.3 µM [falling, partial curve, poor fit]
NCC1CCN(c2nc3ccccc3c3c2CCCC3)CC1 | inactive
Cc1cccc(NC(=O)c2ccc(N3CCCCC3)c([N+](=O)[O-])c2)n1 | inconclusive: 1.84 µM [activator, partial curve, poor fit]
CCCCNc1c(-c2ccc(OC)c(SC3CCCCC3)c2)nc2ccc(C)cn12 | active: 18.4 µM
CCC1=[N+](C)c2cccc3cccc(c23)N1C | inconclusive: 2.31 µM [falling, partial curve, poor fit]
CC(C)(C)OC(=O)NCc1ccc(CNC(=O)c2nc[nH]c2C(=O)NCc2ccccc2)cc1 | inconclusive: 25.9 µM [falling, single point]
CCOC(=O)C(=N/O)/C(C)=N/NC(=O)C(=O)Nc1ccc(Cl)cc1 | inconclusive: 32.6 µM [falling, single point]
CN(c1ccc(C(=O)N2CCOCC2)cc1[N+](=O)[O-])C1CCCCC1 | inactive
O=C1CC(N(CCc2ccccc2)C(=S)Nc2ccccc2)C(=O)N1c1ccc(Br)cc1 (stereo not drawn) | inconclusive: 29.1 µM [falling, single point]
CC(=O)C1=C(O)C(=O)N(Cc2cccnc2)C1c1ccccc1Cl (stereo not drawn) | inconclusive: 29.1 µM [activator, single point]
CCn1c(O)c(/C=C2\C=Nc3ccccc32)sc1=Nc1ccc(C)cc1 | inconclusive: 11.6 µM [falling, partial curve, poor fit]
Oc1ccc(/C=N/Nc2ncnc3nc[nH]c23)cc1 | inactive
CCc1cc2c(cc3c(=O)n(CC(=O)N4CCCCC4)ncn32)s1 | inconclusive: 3.26 µM [activator, full curve, poor fit]
CCOc1ccc2nc(N3CCCC(C(=O)Nc4cccc(Cl)c4C)C3)sc2c1 (stereo not drawn) | inconclusive: 1.16 µM [activator, full curve, poor fit]
COc1cccc(C(=O)NC(=S)N2CCN(c3ccc(C(F)(F)F)cc3[N+](=O)[O-])CC2)c1 | inconclusive: 32.6 µM [falling, single point]

Part of the list above, with tabs.
Compound	Potency
Cc1cccc(NC(=O)c2ccc(N3CCCCC3)c([N+](=O)[O-])c2)n1	inconclusive: 1.84 µM [activator, partial curve, poor fit]
CCCCNc1c(-c2ccc(OC)c(SC3CCCCC3)c2)nc2ccc(C)cn12	active: 18.4 µM
CCC1=[N+](C)c2cccc3cccc(c23)N1C	inconclusive: 2.31 µM [falling, partial curve, poor fit]
CC(C)(C)OC(=O)NCc1ccc(CNC(=O)c2nc[nH]c2C(=O)NCc2ccccc2)cc1	inconclusive: 25.9 µM [falling, single point]
CCOC(=O)C(=N/O)/C(C)=N/NC(=O)C(=O)Nc1ccc(Cl)cc1	inconclusive: 32.6 µM [falling, single point]
CN(c1ccc(C(=O)N2CCOCC2)cc1[N+](=O)[O-])C1CCCCC1	inactive
O=C1CC(N(CCc2ccccc2)C(=S)Nc2ccccc2)C(=O)N1c1ccc(Br)cc1 (stereo not drawn)	inconclusive: 29.1 µM [falling, single point]
CC(=O)C1=C(O)C(=O)N(Cc2cccnc2)C1c1ccccc1Cl (stereo not drawn)	inconclusive: 29.1 µM [activator, single point]
CCn1c(O)c(/C=C2\C=Nc3ccccc32)sc1=Nc1ccc(C)cc1	inconclusive: 11.6 µM [falling, partial curve, poor fit]
Oc1ccc(/C=N/Nc2ncnc3nc[nH]c23)cc1	inactive
CCc1cc2c(cc3c(=O)n(CC(=O)N4CCCCC4)ncn32)s1	inconclusive: 3.26 µM [activator, full curve, poor fit]
